Data on one substance can be found in article PMC5702604.

Sequences of proteins named here, by UniProt entry; tags and fusion partners are left off.
UniProt E2JF22: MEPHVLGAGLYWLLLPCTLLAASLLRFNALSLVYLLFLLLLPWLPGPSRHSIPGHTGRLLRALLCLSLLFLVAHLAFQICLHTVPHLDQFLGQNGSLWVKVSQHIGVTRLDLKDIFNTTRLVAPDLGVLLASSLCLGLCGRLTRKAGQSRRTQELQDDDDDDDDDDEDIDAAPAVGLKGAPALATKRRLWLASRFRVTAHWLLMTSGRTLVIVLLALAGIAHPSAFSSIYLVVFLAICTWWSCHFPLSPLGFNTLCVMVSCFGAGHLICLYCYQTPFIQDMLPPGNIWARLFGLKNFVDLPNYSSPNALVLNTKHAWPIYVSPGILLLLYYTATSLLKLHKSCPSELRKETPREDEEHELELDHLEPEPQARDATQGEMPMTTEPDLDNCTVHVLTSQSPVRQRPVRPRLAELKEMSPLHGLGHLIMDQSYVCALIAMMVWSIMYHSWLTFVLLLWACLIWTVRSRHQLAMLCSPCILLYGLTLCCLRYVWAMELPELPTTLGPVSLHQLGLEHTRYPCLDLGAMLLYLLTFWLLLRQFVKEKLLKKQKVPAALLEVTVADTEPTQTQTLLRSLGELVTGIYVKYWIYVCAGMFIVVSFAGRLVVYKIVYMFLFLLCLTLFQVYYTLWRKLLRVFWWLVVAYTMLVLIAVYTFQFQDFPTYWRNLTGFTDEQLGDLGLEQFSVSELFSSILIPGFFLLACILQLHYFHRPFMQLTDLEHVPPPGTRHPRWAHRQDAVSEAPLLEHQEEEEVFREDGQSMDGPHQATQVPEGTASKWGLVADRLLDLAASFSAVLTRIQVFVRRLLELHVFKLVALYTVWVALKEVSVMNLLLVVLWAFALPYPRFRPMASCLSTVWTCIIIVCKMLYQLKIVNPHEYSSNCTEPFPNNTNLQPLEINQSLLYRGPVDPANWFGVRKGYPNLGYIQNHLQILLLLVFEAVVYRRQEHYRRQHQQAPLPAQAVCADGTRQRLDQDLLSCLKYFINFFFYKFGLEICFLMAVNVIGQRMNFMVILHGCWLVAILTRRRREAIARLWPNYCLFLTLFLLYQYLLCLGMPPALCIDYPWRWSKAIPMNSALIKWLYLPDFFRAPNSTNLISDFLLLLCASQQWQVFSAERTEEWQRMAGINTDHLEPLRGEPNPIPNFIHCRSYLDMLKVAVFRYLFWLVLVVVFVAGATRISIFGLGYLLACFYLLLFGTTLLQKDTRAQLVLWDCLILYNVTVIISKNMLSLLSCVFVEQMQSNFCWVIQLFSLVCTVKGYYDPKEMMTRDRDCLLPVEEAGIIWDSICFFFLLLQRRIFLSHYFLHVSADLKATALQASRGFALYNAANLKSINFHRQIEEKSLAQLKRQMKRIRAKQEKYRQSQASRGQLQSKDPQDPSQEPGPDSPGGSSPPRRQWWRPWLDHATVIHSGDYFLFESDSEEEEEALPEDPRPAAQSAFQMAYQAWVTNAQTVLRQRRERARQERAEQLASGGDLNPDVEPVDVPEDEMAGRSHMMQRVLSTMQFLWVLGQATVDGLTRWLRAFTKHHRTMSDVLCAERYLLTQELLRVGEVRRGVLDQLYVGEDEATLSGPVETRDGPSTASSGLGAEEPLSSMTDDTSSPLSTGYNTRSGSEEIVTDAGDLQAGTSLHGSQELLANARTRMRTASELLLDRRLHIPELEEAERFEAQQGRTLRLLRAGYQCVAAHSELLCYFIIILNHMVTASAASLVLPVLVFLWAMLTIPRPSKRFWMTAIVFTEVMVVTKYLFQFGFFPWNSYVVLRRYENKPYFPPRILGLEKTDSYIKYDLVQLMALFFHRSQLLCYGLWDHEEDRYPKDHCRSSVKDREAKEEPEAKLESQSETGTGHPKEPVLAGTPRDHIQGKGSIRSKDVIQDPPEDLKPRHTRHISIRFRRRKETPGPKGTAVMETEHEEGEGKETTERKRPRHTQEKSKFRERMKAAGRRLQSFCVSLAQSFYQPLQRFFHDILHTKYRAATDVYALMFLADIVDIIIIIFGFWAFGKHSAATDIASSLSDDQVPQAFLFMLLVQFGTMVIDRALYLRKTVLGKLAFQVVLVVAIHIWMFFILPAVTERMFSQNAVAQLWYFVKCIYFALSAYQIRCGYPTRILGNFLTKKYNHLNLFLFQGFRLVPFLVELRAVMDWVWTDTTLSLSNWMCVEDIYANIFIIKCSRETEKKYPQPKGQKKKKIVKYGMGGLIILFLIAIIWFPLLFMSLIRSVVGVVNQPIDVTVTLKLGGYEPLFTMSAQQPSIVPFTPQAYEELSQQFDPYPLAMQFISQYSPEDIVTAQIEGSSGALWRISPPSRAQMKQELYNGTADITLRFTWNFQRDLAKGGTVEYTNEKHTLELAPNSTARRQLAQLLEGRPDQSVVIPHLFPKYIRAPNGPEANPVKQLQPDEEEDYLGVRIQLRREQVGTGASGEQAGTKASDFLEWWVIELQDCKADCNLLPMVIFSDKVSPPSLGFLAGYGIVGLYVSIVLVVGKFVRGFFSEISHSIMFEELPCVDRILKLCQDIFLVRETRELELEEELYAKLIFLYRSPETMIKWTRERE
UniProt O55143: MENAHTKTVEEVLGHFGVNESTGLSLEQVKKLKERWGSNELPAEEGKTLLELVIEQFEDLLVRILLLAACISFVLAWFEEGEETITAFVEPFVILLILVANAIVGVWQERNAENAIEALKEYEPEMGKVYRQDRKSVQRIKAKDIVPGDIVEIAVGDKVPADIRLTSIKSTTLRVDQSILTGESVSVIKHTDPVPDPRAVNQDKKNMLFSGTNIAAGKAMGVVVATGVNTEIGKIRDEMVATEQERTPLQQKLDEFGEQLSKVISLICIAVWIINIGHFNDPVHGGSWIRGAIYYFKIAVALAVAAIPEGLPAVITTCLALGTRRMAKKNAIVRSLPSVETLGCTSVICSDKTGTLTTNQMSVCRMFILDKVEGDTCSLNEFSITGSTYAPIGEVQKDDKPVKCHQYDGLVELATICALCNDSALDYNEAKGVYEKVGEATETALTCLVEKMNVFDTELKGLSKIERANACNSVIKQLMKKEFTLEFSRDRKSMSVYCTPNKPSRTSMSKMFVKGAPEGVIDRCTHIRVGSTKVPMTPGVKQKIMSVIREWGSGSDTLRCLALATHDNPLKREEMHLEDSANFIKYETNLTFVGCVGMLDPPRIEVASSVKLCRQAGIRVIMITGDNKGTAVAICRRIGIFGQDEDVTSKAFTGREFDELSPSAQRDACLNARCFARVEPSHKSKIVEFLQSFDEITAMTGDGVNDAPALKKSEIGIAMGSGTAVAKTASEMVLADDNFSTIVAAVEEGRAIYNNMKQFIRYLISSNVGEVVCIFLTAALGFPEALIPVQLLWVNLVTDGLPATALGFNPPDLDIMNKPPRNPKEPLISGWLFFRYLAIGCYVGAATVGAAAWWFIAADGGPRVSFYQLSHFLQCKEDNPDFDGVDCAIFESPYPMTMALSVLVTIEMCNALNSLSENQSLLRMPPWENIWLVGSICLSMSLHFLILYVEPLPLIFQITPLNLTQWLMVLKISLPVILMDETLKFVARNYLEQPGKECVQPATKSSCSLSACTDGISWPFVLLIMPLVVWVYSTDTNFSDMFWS

Results are given in words; binding and its absence hold for the method and conditions named. In cells and extracts the contact can be indirect. These calls come from enrichment with a bait or labelling near it, and not all partners need be listed.

This assay has as its target Piezo1-GST fusion protein (mouse Piezo1) (mouse) (UniProt E2JF22). Kind of assay: affinity purification with mass spectrometry; GST or Piezo1-GST associated glutathione beads from transfected HEK293T cells incubated with C2C12 cell lysates; SDS-PAGE, silver staining, bands excised for mass spectrometry; only the target purified.

For “endogenously expressed SERCA2 in C2C12 cells (from UniProt O55143 1-1044)”, the binding entry is recorded as “binds”.
